This is an account of results in PMC11900815.

By UniProt entry, the sequences of proteins in these tests, tags left out.
UniProt Q01196: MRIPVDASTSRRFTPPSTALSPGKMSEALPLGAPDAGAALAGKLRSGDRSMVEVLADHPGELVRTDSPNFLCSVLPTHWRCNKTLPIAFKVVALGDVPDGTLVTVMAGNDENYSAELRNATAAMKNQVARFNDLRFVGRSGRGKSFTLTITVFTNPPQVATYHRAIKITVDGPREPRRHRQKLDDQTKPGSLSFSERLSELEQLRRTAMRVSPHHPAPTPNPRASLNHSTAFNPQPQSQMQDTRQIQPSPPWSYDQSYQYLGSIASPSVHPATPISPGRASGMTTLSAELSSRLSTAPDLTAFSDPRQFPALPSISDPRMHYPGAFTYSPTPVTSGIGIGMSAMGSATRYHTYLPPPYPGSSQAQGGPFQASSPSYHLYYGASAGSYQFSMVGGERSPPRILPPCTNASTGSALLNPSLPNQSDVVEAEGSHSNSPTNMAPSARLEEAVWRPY

The target of test [1] is T1, Nuclear receptor subfamily 2 group F member 1 (NR2F1), endogenous (human (endogenous in A498, CAKI and HEK293T)) (UniProt P10589).
T1 sequence: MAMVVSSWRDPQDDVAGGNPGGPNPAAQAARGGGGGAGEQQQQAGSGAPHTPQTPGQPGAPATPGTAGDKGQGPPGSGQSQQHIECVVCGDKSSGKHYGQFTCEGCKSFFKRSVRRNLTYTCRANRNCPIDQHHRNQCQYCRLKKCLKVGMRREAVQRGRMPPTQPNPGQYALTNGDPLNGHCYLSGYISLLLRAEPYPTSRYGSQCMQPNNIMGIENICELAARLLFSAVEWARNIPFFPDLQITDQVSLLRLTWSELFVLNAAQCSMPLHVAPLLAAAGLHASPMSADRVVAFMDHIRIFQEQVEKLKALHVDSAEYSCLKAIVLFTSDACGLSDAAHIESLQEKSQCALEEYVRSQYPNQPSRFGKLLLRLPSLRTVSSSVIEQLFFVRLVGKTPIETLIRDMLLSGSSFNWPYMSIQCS
Put plainly: co-IP; endogenous proteins in A498, CAKI and HEK293T lysates; primary antibody or IgG overnight at 4°C, protein A/G magnetic beads 4 h, washed with RIPA, western blot. In general terms: In western blotting, separated proteins are transferred to a membrane and probed.

Test [2] has as its target RUNX family transcription factor 1 (RUNX1), endogenous (human (endogenous in A498, CAKI and HEK293T)) (UniProt Q01196). Described as above.
The target of the next test is T2, HA-NR2F1 (UniProt P10589).
T2 sequence: T1 sequence
As to the kind of experiment: co-IP; Flag-LCOR co-transfected with HA-RUNX1 or HA-NR2F1 in HEK293T cells; protein A/G magnetic beads, washed with RIPA, western blot.

Another test concerns the target HA-RUNX1 (UniProt Q01196). The test is described as above.
Test [3] deals with T3, Ligand dependent nuclear receptor corepressor (LCOR), endogenous (human (endogenous in A498, CAKI and HEK293T)) (UniProt Q96JN0).
T3 sequence: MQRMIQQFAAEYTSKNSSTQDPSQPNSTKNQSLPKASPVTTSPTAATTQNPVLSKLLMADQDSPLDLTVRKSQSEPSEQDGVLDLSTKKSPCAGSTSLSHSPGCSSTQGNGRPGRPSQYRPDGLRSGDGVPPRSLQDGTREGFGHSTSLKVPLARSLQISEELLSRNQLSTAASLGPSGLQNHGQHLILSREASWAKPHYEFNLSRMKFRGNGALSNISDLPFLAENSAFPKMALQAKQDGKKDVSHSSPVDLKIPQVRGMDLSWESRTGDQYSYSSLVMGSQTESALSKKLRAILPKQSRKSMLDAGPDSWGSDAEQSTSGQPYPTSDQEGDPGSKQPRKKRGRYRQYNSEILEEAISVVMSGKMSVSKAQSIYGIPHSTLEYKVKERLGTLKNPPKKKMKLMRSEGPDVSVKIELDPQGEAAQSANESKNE
As to the kind of experiment: co-IP; endogenous proteins in A498, CAKI and HEK293T lysates; primary antibody or IgG overnight at 4°C, protein A/G magnetic beads 4 h, washed with RIPA, western blot.

These are yes or no findings as the source states them, for the method shown. In cells and extracts the contact can be indirect. Some results given as binding are weak or reduced against the parent protein; the word gives no strength. For some assays here: Tags and fused reporters may be left off the sequences shown.

B1: Ligand dependent nuclear receptor corepressor (LCOR), endogenous (protein, UniProt Q96JN0 1-433)
chain: T3 sequence
As for B1, the binding entry in test [1] and in test [2] was “binds” throughout.

B2: Flag-LCOR (protein, UniProt Q96JN0-1 1-433)
chain: T3 sequence
For B2, the binding entry in the test with HA-NR2F1 and with HA-RUNX1 was “binds” throughout.

B3: Nuclear receptor subfamily 2 group F member 1 (NR2F1), endogenous (protein, UniProt P10589 1-423)
chain: T1 sequence
Take B3: in test [3], the binding result is on record as “binds”.
